The chains are these.
T1: HTF-Rab27a^WT (rat) (UniProt P23640)
T1 sequence: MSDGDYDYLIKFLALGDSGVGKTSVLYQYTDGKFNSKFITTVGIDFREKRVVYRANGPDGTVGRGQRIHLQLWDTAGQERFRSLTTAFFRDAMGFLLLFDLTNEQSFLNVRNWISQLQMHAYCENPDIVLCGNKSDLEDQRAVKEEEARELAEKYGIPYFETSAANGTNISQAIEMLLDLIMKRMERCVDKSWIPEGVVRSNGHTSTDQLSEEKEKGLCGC

By UniProt entry, the sequences of proteins in these tests, tags left out.
UniProt P07356: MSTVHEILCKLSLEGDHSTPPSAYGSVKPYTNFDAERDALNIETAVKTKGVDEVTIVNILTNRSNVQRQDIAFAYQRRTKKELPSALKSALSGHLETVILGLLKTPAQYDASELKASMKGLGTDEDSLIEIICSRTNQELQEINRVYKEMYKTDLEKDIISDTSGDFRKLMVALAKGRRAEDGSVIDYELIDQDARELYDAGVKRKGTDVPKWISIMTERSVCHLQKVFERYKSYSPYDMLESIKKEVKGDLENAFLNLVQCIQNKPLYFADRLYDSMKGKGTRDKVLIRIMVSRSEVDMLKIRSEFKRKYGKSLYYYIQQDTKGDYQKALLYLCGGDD

B1: Glycoprotein non-metastatic protein B (GPNMB) (protein, UniProt Q99P91 23-574)
chain: KRFRDVLGHEQYPDHMREHNQLRGWSSDENEWDEHLYPVWRRGDGRWKDSWEGGRVQAVLTSDSPALVGSNITFVVNLVFPRCQKEDANGNIVYEKNCRNDLGLTSDLHVYNWTAGADDGDWEDGTSRSQHLRFPDRRPFPRPHGWKKWSFVYVFHTLGQYFQKLGRCSARVSINTVNLTAGPQVMEVTVFRRYGRAYIPISKVKDVYVITDQIPVFVTMSQKNDRNLSDEIFLRDLPIVFDVLIHDPSHFLNDSAISYKWNFGDNTGLFVSNNHTLNHTYVLNGTFNLNLTVQTAVPGPCPPPSPSTPPPPSTPPSPPPSPLPTLSTPSPSLMPTGYKSMELSDISNENCRINRYGYFRATITIVEGILEVSIMQIADVPMPTPQPANSLMDFTVTCKGATPMEACTIISDPTCQIAQNRVCSPVAVDGLCLLSVRRAFNGSGTYCVNFTLGDDASLALTSTLISIPGKDPDSPLRAVNGVLISIGCLAVLVTMVTILLYKKHKAYKPIGNCPRNTVKGKGLSVLLSHAKAPFFRGDQEKDPLLQDKPRTL
B2: Pmel-17 (protein, UniProt Q60696 24-626)
chain: EGSRNQDWLGVPRQLVTKTWNRQLYPEWTEVQGSNCWRGGQVSLRVINDGPTLVGANASFSIALHFPGSQKVLPDGQVIWANNTIINGSQVWGGQPVYPQEPDDACVFPDGGPCPSGPKPPKRSFVYVWKTWGKYWQVLGGPVSRLSIATGHAKLGTHTMEVTVYHRRGSQSYVPLAHASSTFTITDQVPFSVSVSQLQALDGETKHFLRNHPLIFALQLHDPSGYLAEADLSYTWDFGDGTGTLISRALDVTHTYLESGSVTAQVVLQAAIPLVSCGSSPVPGTTDGYMPTAEAPGTTSRQGTTTKVVGTTPGQMPTTQPSGTTVVQMPTTEVTATTSEQMLTSAVIDTTLAEVSTTEGTGTTPTRPSGTTVAQATTTEGPDASPLLPTQSSTGSISPLLDDTDTIMLVKRQVPLDCVLYRYGSFSLALDIVQGIESAEILQAVPFSEGDAFELTVSCQGGLPKEACMDISSPGCQPPAQRLCQSVPPSPDCQLVLHQVLKGGSGTYCLNVSLADANSLAVASTQLVVPGQDGGLGQAPLLVGILLVLVAVVLASLIHRHRLKKQGSVSQMPHGSTHWLRLPPVFRARGLGENSPLLSGQQV

These are yes or no findings as the source states them, for the method shown. In cells and extracts the contact can be indirect. These calls come from enrichment with a bait or labelling near it, and not all partners need be listed.

This experiment deals with T1, HTF-Rab27a^WT (rat). In words: affinity purification with mass spectrometry; tandem affinity purification of HTF-Rab27a from 1% CHAPS S100 of stable melan-ash2 lines (anti-HA IP, TEV cleavage, anti-FLAG IP, FLAG peptide elution), Buffer A (50 mM Tris pH 7.5, 150 mM NaCl, 5 mM MgCl2, 1 mM DTT) with CHAPS, 4°C; nano-LC mass spectrometry; untransfected melan-ash2 as control.
Take “Annexin A2 (Anxa2) (from UniProt P07356 1-339)”: the binding entry is given as “binds”.

On to B1, for which the binding result is given as “binds”.

As for B2, the binding result is reported as “binds”.

The values above are taken from PMC4106853.
